# In the supplement of paper PMC8728848:
# The list shows a part of the results.
# Key:
# Assay in all cases: glycan array binding signal (z-score within array); higher = stronger binding
# Conditions in all cases: glycan notation: IUPAC condensed, linker removed
# [1] = target: Man(a1-2)Man(a1-3)[Man(a1-2)Man(a1-6)]Man
# Summary of the method: (§1)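 Columns mapping to the same glycan were averaged after glycan names were converted to IUPAC-condensed notation. The data come from 3228 arrays in the Consortium for Functional Glycomics database, limited to those with an available protein sequence. Binding is reported as a within-array Z-score averaged across arrays of one protein sequence and across linkers.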
# [2] = target: Man(a1-2)Man(a1-3)[Man(a1-2)Man(a1-6)]Man(a1-6)[Man(a1-2)Man(a1-2)Man(a1-3)]Man
# Summary of the method: as §1
# [3] = target: Man(a1-2)Man(a1-3)[Man(a1-2)Man(a1-6)]Man(a1-6)[Man(a1-2)Man(a1-2)Man(a1-3)]Man(b1-4)GlcNAc(b1-4)GlcNAc
# Summary of the method: as §1
# [4] = target: Man(a1-2)Man(a1-3)[Man(a1-6)]Man(a1-6)[Man(a1-2)Man(a1-3)]Man(b1-4)GlcNAc(b1-4)GlcNAc
# Summary of the method: as §1
# [5] = target: Man(a1-2)Man(a1-6)[Man(a1-3)]Man(a1-6)[Man(a1-2)Man(a1-2)Man(a1-3)]Man
# Summary of the method: as §1
# [6] = target: Man(a1-2)Man(a1-6)[Man(a1-3)]Man(a1-6)[Man(a1-2)Man(a1-2)Man(a1-3)]Man(b1-4)GlcNAc(b1-4)GlcNAc
# Summary of the method: as §1
# [7] = target: Man(a1-3)[Man(a1-6)]Man
# Summary of the method: as §1
# [8] = target: Man(a1-3)[Man(a1-6)]Man(a1-6)[Man(a1-2)Man(a1-3)]Man(b1-4)GlcNAc(b1-4)GlcNAc
# Summary of the method: as §1
# [9] = target: Man(a1-3)[Man(a1-6)]Man(a1-6)[Man(a1-3)]Man
# Summary of the method: as §1
# [10] = target: Man(a1-3)[Man(a1-6)]Man(a1-6)[Man(a1-3)]Man(b1-4)GlcNAc(b1-4)GlcNAc
# Summary of the method: as §1
# [11] = target: Man(a1-3)[Man(a1-6)]Man(b1-4)GlcNAc(b1-4)GlcNAc
# Summary of the method: as §1
# [12] = target: Man(a1-3)[Man(a1-6)]Man(b1-4)GlcNAc(b1-4)[Fuc(a1-6)]GlcNAc
# Summary of the method: as §1
# [13] = target: Man(a1-6)Man
# Summary of the method: as §1
# [14] = target: Man(b1-4)GlcNAc
# Summary of the method: as §1
# [15] = target: MurNAc(b1-4)GlcNAc
# Summary of the method: as §1
# [16] = target: Neu5Ac(a2-3)Gal
# Summary of the method: as §1
# [17] = target: Neu5Ac(a2-3)Gal(b1-3)GalNAc
# Summary of the method: as §1
# [18] = target: Neu5Ac(a2-3)Gal(b1-3)GalNAc(b1-3)Gal(a1-4)Gal(b1-4)Glc
# Summary of the method: as §1
# [19] = target: Neu5Ac(a2-3)Gal(b1-3)GalNAc(b1-4)Gal(b1-4)Glc
# Summary of the method: as §1
# [20] = target: Neu5Ac(a2-3)Gal(b1-3)GalNAc(b1-4)[Neu5Ac(a2-3)]Gal(b1-4)Glc
# Summary of the method: as §1
# [21] = target: Neu5Ac(a2-3)Gal(b1-3)GalNAc(b1-4)[Neu5Ac(a2-8)Neu5Ac(a2-3)]Gal(b1-4)Glc
# Summary of the method: as §1
# [22] = target: Neu5Ac(a2-3)Gal(b1-3)GalNAc6S
# Summary of the method: as §1
# [23] = target: Neu5Ac(a2-3)Gal(b1-3)GlcNAc
# Summary of the method: as §1
# [24] = target: Neu5Ac(a2-3)Gal(b1-3)GlcNAc(b1-2)Man
# Summary of the method: as §1
# [25] = target: Neu5Ac(a2-3)Gal(b1-3)GlcNAc(b1-2)Man(a1-3)[GlcNAc(b1-4)][Neu5Ac(a2-3)Gal(b1-3)GlcNAc(b1-2)Man(a1-6)]Man(b1-4)GlcNAc(b1-4)GlcNAc
# Summary of the method: as §1
# [26] = target: Neu5Ac(a2-3)Gal(b1-3)GlcNAc(b1-2)Man(a1-3)[Neu5Ac(a2-3)Gal(b1-3)GlcNAc(b1-2)Man(a1-6)]Man(b1-4)GlcNAc(b1-4)GlcNAc
# Summary of the method: as §1
# [27] = target: Neu5Ac(a2-3)Gal(b1-3)GlcNAc(b1-2)[Neu5Ac(a2-3)Gal(b1-3)GlcNAc(b1-4)]Man(a1-6)[Neu5Ac(a2-3)Gal(b1-3)GlcNAc(b1-2)Man(a1-3)]Man(b1-4)GlcNAc(b1-4)GlcNAc
# Summary of the method: as §1
# [28] = target: Neu5Ac(a2-3)Gal(b1-3)GlcNAc(b1-3)Gal(b1-3)GlcNAc
# Summary of the method: as §1
# [29] = target: Neu5Ac(a2-3)Gal(b1-3)GlcNAc(b1-3)Gal(b1-4)GlcNAc
# Summary of the method: as §1
# [30] = target: Neu5Ac(a2-3)Gal(b1-3)GlcNAc(b1-3)GalNAc
# Summary of the method: as §1
# [31] = target: Neu5Ac(a2-3)Gal(b1-3)GlcNAc(b1-6)GalNAc
# Summary of the method: as §1
# [32] = target: Neu5Ac(a2-3)Gal(b1-3)GlcNAc6S
# Summary of the method: as §1
# [33] = target: Neu5Ac(a2-3)Gal(b1-3)[Fuc(a1-4)]GlcNAc
# Summary of the method: as §1
# [34] = target: Neu5Ac(a2-3)Gal(b1-3)[Fuc(a1-4)]GlcNAc(b1-3)Gal(b1-3)[Fuc(a1-4)]GlcNAc
# Summary of the method: as §1
# [35] = target: Neu5Ac(a2-3)Gal(b1-3)[Fuc(a1-4)]GlcNAc(b1-3)Gal(b1-4)[Fuc(a1-3)]GlcNAc
# Summary of the method: as §1
# [36] = target: Neu5Ac(a2-3)Gal(b1-3)[GlcNAc(b1-6)]GalNAc
# Summary of the method: as §1
# [37] = target: Neu5Ac(a2-3)Gal(b1-3)[Neu5Ac(a2-6)]GalNAc
# Summary of the method: as §1
binder,measurement,setting,value
"MtEccB1 (Mycobacterium tuberculosis H37Rv), O69734 (protein) MGLRLTTKVQVSGWRFLLRRLEHAIVRRDTRMFDDPLQFYSRSIALGIVVAVLILAGAALLAYFKPQGKLGGTSLFTDRATNQLYVLLSGQLHPVYNLTSARLVLGNPANPATVKSSELSKLPMGQTVGIPGAPYATPVSAGSTSIWTLCDTVARADSTSPVVQTAVIAMPLEIDASIDPLQSHEAVLVSYQGETWIVTTKGRHAIDLTDRALTSSMGIPVTARPTPISEGMFNALPDMGPWQLPPIPAAGAPNSLGLPDDLVIGSVFQIHTDKGPQYYVVLPDGIAQVNATTAAALRATQAHGLVAPPAMVPSLVVRIAERVYPSPLPDEPLKIVSRPQDPALCWSWQRSAGDQSPQSTVLSGRHLPISPSAMNMGIKQIHGTATVYLDGGKFVALQSPDPRYTESMYYIDPQGVRYGVPNAETAKSLGLSSPQNAPWEIVRLLVDGPVLSKDAALLEHDTLPADPSPRKVPAGASGAP",glycan array binding signal (z-score),[1],-0.202
same,glycan array binding signal (z-score),[2],-0.521
same,glycan array binding signal (z-score),[3],-0.633
same,glycan array binding signal (z-score),[4],-0.476
same,glycan array binding signal (z-score),[5],-0.312
same,glycan array binding signal (z-score),[6],-1.16
same,glycan array binding signal (z-score),[7],0.143
same,glycan array binding signal (z-score),[8],1.24
same,glycan array binding signal (z-score),[9],1.83
same,glycan array binding signal (z-score),[10],-1.33
same,glycan array binding signal (z-score),[11],0.351
same,glycan array binding signal (z-score),[12],0.339
same,glycan array binding signal (z-score),[13],-0.491
same,glycan array binding signal (z-score),[14],0.201
same,glycan array binding signal (z-score),[15],-0.788
same,glycan array binding signal (z-score),[16],-0.428
same,glycan array binding signal (z-score),[17],1.54
same,glycan array binding signal (z-score),[18],-0.38
same,glycan array binding signal (z-score),[19],0.333
same,glycan array binding signal (z-score),[20],3.37
same,glycan array binding signal (z-score),[21],-0.694
same,glycan array binding signal (z-score),[22],0.633
same,glycan array binding signal (z-score),[23],0.138
same,glycan array binding signal (z-score),[24],-1.36
same,glycan array binding signal (z-score),[25],-0.228
same,glycan array binding signal (z-score),[26],0.99
same,glycan array binding signal (z-score),[27],0.687
same,glycan array binding signal (z-score),[28],-0.665
same,glycan array binding signal (z-score),[29],-0.6
same,glycan array binding signal (z-score),[30],0.017
same,glycan array binding signal (z-score),[31],-0.342
same,glycan array binding signal (z-score),[32],-0.146
same,glycan array binding signal (z-score),[33],1.24
same,glycan array binding signal (z-score),[34],-1.74
same,glycan array binding signal (z-score),[35],0.263
same,glycan array binding signal (z-score),[36],-1.55
same,glycan array binding signal (z-score),[37],0.161

# Laid out differently: entries from further up.
binder	measurement	setting	value
MtEccB1 (Mycobacterium tuberculosis H37Rv), O69734 (protein) MGLRLTTKVQVSGWRFLLRRLEHAIVRRDTRMFDDPLQFYSRSIALGIVVAVLILAGAALLAYFKPQGKLGGTSLFTDRATNQLYVLLSGQLHPVYNLTSARLVLGNPANPATVKSSELSKLPMGQTVGIPGAPYATPVSAGSTSIWTLCDTVARADSTSPVVQTAVIAMPLEIDASIDPLQSHEAVLVSYQGETWIVTTKGRHAIDLTDRALTSSMGIPVTARPTPISEGMFNALPDMGPWQLPPIPAAGAPNSLGLPDDLVIGSVFQIHTDKGPQYYVVLPDGIAQVNATTAAALRATQAHGLVAPPAMVPSLVVRIAERVYPSPLPDEPLKIVSRPQDPALCWSWQRSAGDQSPQSTVLSGRHLPISPSAMNMGIKQIHGTATVYLDGGKFVALQSPDPRYTESMYYIDPQGVRYGVPNAETAKSLGLSSPQNAPWEIVRLLVDGPVLSKDAALLEHDTLPADPSPRKVPAGASGAP	glycan array binding signal (z-score)	[14]	0.201
same	glycan array binding signal (z-score)	[23]	0.138
